PubChem BioAssay AID2551 (National Center for Advancing Translational Sciences (NCATS), 2010)
Out of some 310,000 compounds screened, about 17,000 (5.5%) were called active. The shares of active, inactive and inconclusive entries below differ from those in the screen. The call rests on the fitted dose curve; in most records, active means well fitted inhibition curve with a large enough effect; inconclusive means small, poorly fitted or top-dose-only effect, or effect the other way; inactive means no such curve, though single readings can be large or run the other way. A potency beside an inconclusive call is a rough fit, not a confirmed value.

Protein sequences, listed by entry. Tags and fused reporters are not part of them. Lines headed by an entry give the natural chain unless they say otherwise; changes in a name come on top.
UniProt P51450: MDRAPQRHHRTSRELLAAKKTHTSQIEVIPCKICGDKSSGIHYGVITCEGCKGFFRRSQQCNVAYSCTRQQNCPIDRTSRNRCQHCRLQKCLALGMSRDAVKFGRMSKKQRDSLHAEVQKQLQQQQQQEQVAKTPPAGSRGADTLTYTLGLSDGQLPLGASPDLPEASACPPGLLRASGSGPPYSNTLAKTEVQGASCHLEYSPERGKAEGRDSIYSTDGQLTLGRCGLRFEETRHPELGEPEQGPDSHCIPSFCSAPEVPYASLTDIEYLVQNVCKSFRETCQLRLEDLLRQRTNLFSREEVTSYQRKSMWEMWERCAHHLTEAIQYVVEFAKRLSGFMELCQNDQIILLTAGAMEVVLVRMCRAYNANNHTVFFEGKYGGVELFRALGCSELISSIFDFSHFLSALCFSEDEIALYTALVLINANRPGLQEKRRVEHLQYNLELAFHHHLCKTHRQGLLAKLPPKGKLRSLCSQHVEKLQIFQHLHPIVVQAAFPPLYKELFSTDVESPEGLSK

Each compound was assayed against Nuclear receptor ROR-gamma (Mus musculus) (UniProt P51450) (assay: qHTS for inhibitors of ROR gamma transcriptional activity). Details: Drosophila S2 Gal4-RORgamma UAS-luciferase reporter, 20 h; activity change, negative = inhibition: at 53.6 µM (top of the series).
Summary of the method: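 A Gal4/UAS one-hybrid system in insect cells: metallothionein-promoter Gal4–ROR gamma fusion plus Photinus luciferase reporter. Copper sulfate 700 uM final, 20 hr ambient incubation, luminescent detection after 10 min with reagent.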
Further: nearly all actives have a fitted effect of over 60% in size.
On the % scale 0 is the no-effect control and ±100 the full control effect; potency means the concentration at half of the fitted maximal effect.

Potency, inconclusive:
Cc1ccc(C)c(Cn2cnc3c(cnn3C(C)(C)C)c2=O)c1 12.6 µM [inhibitor, single point]
CC(=O)NCCNc1ncnc2ccc(-c3ccc4c(c3)OCO4)cc12 31.6 µM [activator, single point]
CC(C)(C)C1CCc2[nH]c3ccccc3c(=O)c2C1 (stereo not given) 35.5 µM [inhibitor, single point]
Cc1c(C(=O)c2ccc(Cl)c(Cl)c2)cnc2cc3c(cc12)OCO3 35.5 µM [activator, single point]
Cc1cccc2nc(CSCc3ccco3)cn12 17.8 µM [inhibitor, single point]
COc1cc(CNCCc2c[nH]c3ccccc23)ccc1OCc1ccccc1F 35.5 µM [inhibitor, single point]
O=C(CN1CCN(S(=O)(=O)c2ccc(Br)cc2)CC1)Nc1ccc2c(c1)OCO2 20 µM [activator, single point]
Cc1ccc(-n2ncc3c2CC(C)(C)CC3NC(=O)c2ccncc2)cc1 (stereo not given) 10 µM [activator, single point]
Cc1ccc(CC(=O)Nc2cccc(S(=O)(=O)N3CCOCC3)c2)cc1 11.2 µM [activator, single point]
Cc1cc(C)n2c(SCc3cccs3)nnc2n1 3.55 µM [activator, full curve, poor fit]
CN(C)/C=C(\C=N\OCc1ccc(Cl)cc1Cl)C(=O)Nc1ccc(Cl)c(Cl)c1 35.5 µM [inhibitor, single point]
CN1CCN(CC(O)COc2ccc(C34CC5CC(CC(C5)C3)C4)cc2)CC1 (stereo not given) 35.5 µM [inhibitor, single point]
Cc1cc(C)c2nc(-c3ccccn3)cc(C(=O)Nc3ccc(S(=O)(=O)Nc4cc(C)on4)cc3)c2c1 12.6 µM [activator, single point]
Cc1ccsc1C(=O)OCC(=O)Nc1cccc(S(=O)(=O)N2CCOCC2)c1 12.6 µM [activator, partial curve]
CC(=O)Nc1cccc(OCCCNS(=O)(=O)c2ccc(F)cc2)c1 12.6 µM [activator, partial curve, poor fit]
CCn1c(COc2ccccc2C)nc2ccccc21 12.6 µM [inhibitor, single point]
CCCOc1ccc(C(=O)NC(=S)Nc2nc(C)c(C(=O)N(C)C)s2)cc1 35.5 µM [inhibitor, single point]
Cc1ccc(NC2=CC(=O)CC(c3ccco3)C2)c(N)c1 (stereo not given) 35.5 µM [activator, single point]
CCc1ccc(NC(=S)N2CCCC2)cc1 11.2 µM [inhibitor, single point]
COc1ccc(NS(=O)(=O)c2cc(NC(=O)c3ccco3)ccc2N2CCCCC2)cc1 22.4 µM [inhibitor, single point]
COc1ccccc1Oc1ccc(Oc2ccccc2OC)cc1 6.31 µM [activator, single point]
Cc1cccc(NC(=O)CCNC(=O)c2ccco2)c1 20 µM [activator, partial curve]
Cc1nc(C)c(C(=O)NCc2ccccc2Cl)o1 11.2 µM [inhibitor, single point]
Cc1nc(C)c(C(=O)Nc2ccc(Oc3ccccc3)cc2)o1 12.6 µM [activator, single point]
COc1cccc(C2CC(=O)Nc3cc4c(cc32)OCCO4)c1OC(C)C (stereo not given) 35.5 µM [activator, single point]
CCc1cc(=O)oc2c3c(cc(OCC(=O)NCc4ccco4)c12)OC(C)(C)CC3 1.58 µM [activator, full curve, poor fit]
CCC(C(=O)OCC(=O)Nc1ccc(SC(F)F)cc1)c1ccccc1 (stereo not given) 35.5 µM [activator, single point]
Cc1noc(NC(=O)c2ccc(Cl)c(Cl)c2)c1Cl 7.08 µM [inhibitor, single point]
CC1CCN(C(=O)c2ccccc2NC(=O)c2cccc(S(=O)(=O)N3CCOCC3)c2)CC1 35.5 µM [activator, single point]
CC(C)C1CC(=O)NC(SCC(=O)Nc2ccc(Br)cc2)=C1C#N (stereo not given) 1.12 µM [activator, partial curve, poor fit]
COC(=O)CNc1nc(Cl)nc(NC2CCCCC2)n1 15.8 µM [activator, partial curve]
Cc1ccc(/C=N/n2c(-c3ccccn3)n[nH]c2=S)o1 22.4 µM [inhibitor, single point]
O=C(CCSc1ccc(Cl)cc1)NCc1ccccn1 35.5 µM [activator, single point]
C=C(C)C(=O)OCCCCCCOc1ccc(C(=O)O)cc1 35.5 µM [activator, single point]
COCCCNC(=O)/C=C/c1ccc(Cl)cc1Cl 12.6 µM [activator, partial curve]
Clc1ccc(C2=Nn3c(nnc3-c3n[nH]c4c3CCC4)SC2)cc1Cl 31.6 µM [inhibitor, single point]
Cc1ccnc(SCc2cc(=O)c(OC(=O)c3ccc(S(=O)(=O)N(C)C)cc3)co2)n1 35.5 µM [activator, single point]

An excerpt of the results above:
Potency, inconclusive:
C=C(C)C(=O)OCCCCCCOc1ccc(C(=O)O)cc1 35.5 µM [activator, single point]
COCCCNC(=O)/C=C/c1ccc(Cl)cc1Cl 12.6 µM [activator, partial curve]

Next part.

Potency, inactive:
COc1ccc(C(=O)c2ccccc2O)c(O)c1

Potency, active:
CCN=c1scc(-c2ccco2)n1/N=C/c1ccc(O)cc1 0.1 µM
CCOC(=O)c1cnc2ccc(OCC)cc2c1NCc1ccccc1 2.82 µM
CC(C)(C)n1cn[nH]c1=S 11.2 µM
Cc1ccc2nc(-c3ccccn3)c(Nc3ccccc3C)n2c1 14.1 µM
C=CCn1c(-c2ccc(F)cc2)n[nH]c1=S 7.94 µM
CC(C)C[C@H](NC(=O)c1[nH]cnc1C(=O)Nc1ccc(CNC(=O)OC(C)(C)C)cc1)C(=O)OCc1ccccc1 5.62 µM
CCN1CCN(Cc2ccc(NC(=O)c3ccc(C)c(NC(=O)c4c[nH]c5cc(C(F)(F)F)ccc5c4=O)c3)cc2C(F)(F)F)CC1 6.31 µM
CCCOc1ccc(CNC(=S)N/N=C/c2ccc([N+](=O)[O-])cc2)cc1 1.26 µM
CCOc1ccc(NC(=O)CCCc2cc(-c3ccc(OCC)cc3)on2)cc1 0.126 µM
Oc1c(CN2CCOCC2)cc(COCc2ccccc2)c2cccnc12 0.794 µM
CCCn1nnc(NC(=S)NC(=O)c2cccs2)n1 2 µM
O=C(N/N=C/c1ccco1)c1cc(-c2ccccc2)nc2ccccc12 7.08 µM
S=c1[nH]nc(-c2ccc3c(c2)OCO3)n1-c1ccccc1 8.91 µM
CC1=NN(C(N)=S)C(=O)C1N=Nc1ccc(F)cc1 (stereo not given) 1 µM
c1ccc2[nH]c(-c3nc4ccccc4[nH]3)nc2c1 10 µM
CCOC(=O)C1=C(C)NC(=S)N(C=O)C1c1ccccc1 (stereo not given) 11.2 µM

Reprinted at random: five compounds from above.
Potency, active:
C=CCn1c(-c2ccc(F)cc2)n[nH]c1=S 7.94 µM
c1ccc2[nH]c(-c3nc4ccccc4[nH]3)nc2c1 10 µM
CCCn1nnc(NC(=S)NC(=O)c2cccs2)n1 2 µM
CC(C)C[C@H](NC(=O)c1[nH]cnc1C(=O)Nc1ccc(CNC(=O)OC(C)(C)C)cc1)C(=O)OCc1ccccc1 5.62 µM
S=c1[nH]nc(-c2ccc3c(c2)OCO3)n1-c1ccccc1 8.91 µM

Following part:

Activity change, negative = inhibition, inactive:
CCOC(=O)Cn1c(=O)n(Cc2ccco2)c(=O)c2ccc(C(=O)NC3CCCC3)cc21 -29.4%
C(=N\Nc1nn[nH]n1)/c1ccccc1 -12.4%
N/C(=N\OS(=O)(=O)c1ccc2ccccc2c1)c1ccncc1 0.487%
Cc1nnc(C)n1/N=C/c1ccccn1 -20.5%
CCOC(=O)C1(CCOc2ccccc2)CCN(Cc2ccc(O)c(OC)c2)CC1 31.7%
COC(=O)N1CCC2(CCCN(C(c3ccccc3)c3ccccc3)C2)CC1 17.7%
Cc1c(NC(=O)/C(C#N)=C/c2ccc(-c3cccc(Cl)c3)o2)c(=O)n(-c2ccccc2)n1C 15.3%
CCc1nc2sc3c(O)cc(=O)[nH]c3c2cc1C 2.36%
COc1cc(/C(C)=N/N2CCN(c3ccccc3OC)CC2)ccc1O -10.2%
COc1ccc(S(=O)(=O)N2CCOCC2)cc1NC(=O)Cc1c(Cl)cccc1Cl 12.2%
O=C(Nc1cccc(-c2cn3cccnc3n2)c1)c1ccc2c(c1)OCO2 27.5%
Cc1ccc(SCC(=O)O/N=C(\N)c2ccncc2)cc1 -2.11%
C/C(Cn1cnc([N+](=O)[O-])n1)=N\NC(=O)c1ccccc1 22.4%
CCn1c(=O)cc(SCC(=O)N2CCN(C(=O)c3ccco3)CC2)c2ccccc21 -29.8%
COc1ccc(-c2nc(N)n(C(=O)c3cccs3)n2)cc1 -2.54%
Cn1nc(CC(=O)NCc2cccc3ccccc23)c2ccccc2c1=O -12.1%
CCn1ccnc1CN(C)Cc1cn[nH]c1-c1ccc(OC)c(F)c1 23.1%
CCCCC(=O)NC(=S)Nc1cc(C(=O)O)ccc1OC -30.4%
C/C(=N\NC(=O)c1c(Br)cnn1C)c1ccc(NC(=O)c2ccc(F)cc2)cc1 -20.6%
Cc1ccc2nc(Cl)c(C3CC(c4ccco4)=NN3S(C)(=O)=O)cc2c1 (stereo not given) -0.629%
COC1CCCN(Cc2nc(Cc3ccccc3F)no2)C1 (stereo not given) 16.6%
CC1(c2ccc(O)cc2)NC(=O)N(c2ccccc2)N1 (stereo not given) 25.1%
N[C@@H](Cc1ccccc1)C(=O)N1CCC(C(=O)NCC(=O)Nc2ccc(F)cc2)CC1 -3.33%
CCN1CCN(C(=S)c2ccc(-c3ccccc3)cc2)CC1 -16.6%
CCC(C)C(=O)OC1CCC=C2C=CC(C)C(CCC3CC(O)CC(=O)O3)[C@@H]21 (stereo not given in full) 10.1%
CC(C)Cc1ccc(/C=C/C(=O)N2CCOCC2)cc1 19.2%
